Sequences of proteins named here, by UniProt entry; tags and fusion partners are left off.
UniProt P49739: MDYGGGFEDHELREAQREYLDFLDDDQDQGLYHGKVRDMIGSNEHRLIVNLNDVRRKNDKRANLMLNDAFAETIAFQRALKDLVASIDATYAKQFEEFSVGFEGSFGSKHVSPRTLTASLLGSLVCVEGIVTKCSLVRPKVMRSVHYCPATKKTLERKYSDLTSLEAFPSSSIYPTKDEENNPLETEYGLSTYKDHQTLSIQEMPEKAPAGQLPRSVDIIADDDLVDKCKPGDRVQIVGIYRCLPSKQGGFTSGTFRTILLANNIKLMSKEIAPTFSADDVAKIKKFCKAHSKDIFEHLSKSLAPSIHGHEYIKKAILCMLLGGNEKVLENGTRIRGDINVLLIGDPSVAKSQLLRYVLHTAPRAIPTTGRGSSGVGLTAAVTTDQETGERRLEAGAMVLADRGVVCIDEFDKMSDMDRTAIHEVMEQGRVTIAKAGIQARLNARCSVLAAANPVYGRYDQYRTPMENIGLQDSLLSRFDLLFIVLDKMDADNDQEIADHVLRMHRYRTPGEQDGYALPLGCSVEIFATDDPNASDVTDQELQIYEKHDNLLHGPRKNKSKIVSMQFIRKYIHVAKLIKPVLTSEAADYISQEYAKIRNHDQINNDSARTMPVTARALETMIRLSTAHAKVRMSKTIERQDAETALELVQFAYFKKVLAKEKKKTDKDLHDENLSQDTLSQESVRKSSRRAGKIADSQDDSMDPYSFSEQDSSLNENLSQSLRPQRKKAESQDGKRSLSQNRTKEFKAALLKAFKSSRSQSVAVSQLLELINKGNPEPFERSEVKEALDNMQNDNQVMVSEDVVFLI
UniProt Q9DE14: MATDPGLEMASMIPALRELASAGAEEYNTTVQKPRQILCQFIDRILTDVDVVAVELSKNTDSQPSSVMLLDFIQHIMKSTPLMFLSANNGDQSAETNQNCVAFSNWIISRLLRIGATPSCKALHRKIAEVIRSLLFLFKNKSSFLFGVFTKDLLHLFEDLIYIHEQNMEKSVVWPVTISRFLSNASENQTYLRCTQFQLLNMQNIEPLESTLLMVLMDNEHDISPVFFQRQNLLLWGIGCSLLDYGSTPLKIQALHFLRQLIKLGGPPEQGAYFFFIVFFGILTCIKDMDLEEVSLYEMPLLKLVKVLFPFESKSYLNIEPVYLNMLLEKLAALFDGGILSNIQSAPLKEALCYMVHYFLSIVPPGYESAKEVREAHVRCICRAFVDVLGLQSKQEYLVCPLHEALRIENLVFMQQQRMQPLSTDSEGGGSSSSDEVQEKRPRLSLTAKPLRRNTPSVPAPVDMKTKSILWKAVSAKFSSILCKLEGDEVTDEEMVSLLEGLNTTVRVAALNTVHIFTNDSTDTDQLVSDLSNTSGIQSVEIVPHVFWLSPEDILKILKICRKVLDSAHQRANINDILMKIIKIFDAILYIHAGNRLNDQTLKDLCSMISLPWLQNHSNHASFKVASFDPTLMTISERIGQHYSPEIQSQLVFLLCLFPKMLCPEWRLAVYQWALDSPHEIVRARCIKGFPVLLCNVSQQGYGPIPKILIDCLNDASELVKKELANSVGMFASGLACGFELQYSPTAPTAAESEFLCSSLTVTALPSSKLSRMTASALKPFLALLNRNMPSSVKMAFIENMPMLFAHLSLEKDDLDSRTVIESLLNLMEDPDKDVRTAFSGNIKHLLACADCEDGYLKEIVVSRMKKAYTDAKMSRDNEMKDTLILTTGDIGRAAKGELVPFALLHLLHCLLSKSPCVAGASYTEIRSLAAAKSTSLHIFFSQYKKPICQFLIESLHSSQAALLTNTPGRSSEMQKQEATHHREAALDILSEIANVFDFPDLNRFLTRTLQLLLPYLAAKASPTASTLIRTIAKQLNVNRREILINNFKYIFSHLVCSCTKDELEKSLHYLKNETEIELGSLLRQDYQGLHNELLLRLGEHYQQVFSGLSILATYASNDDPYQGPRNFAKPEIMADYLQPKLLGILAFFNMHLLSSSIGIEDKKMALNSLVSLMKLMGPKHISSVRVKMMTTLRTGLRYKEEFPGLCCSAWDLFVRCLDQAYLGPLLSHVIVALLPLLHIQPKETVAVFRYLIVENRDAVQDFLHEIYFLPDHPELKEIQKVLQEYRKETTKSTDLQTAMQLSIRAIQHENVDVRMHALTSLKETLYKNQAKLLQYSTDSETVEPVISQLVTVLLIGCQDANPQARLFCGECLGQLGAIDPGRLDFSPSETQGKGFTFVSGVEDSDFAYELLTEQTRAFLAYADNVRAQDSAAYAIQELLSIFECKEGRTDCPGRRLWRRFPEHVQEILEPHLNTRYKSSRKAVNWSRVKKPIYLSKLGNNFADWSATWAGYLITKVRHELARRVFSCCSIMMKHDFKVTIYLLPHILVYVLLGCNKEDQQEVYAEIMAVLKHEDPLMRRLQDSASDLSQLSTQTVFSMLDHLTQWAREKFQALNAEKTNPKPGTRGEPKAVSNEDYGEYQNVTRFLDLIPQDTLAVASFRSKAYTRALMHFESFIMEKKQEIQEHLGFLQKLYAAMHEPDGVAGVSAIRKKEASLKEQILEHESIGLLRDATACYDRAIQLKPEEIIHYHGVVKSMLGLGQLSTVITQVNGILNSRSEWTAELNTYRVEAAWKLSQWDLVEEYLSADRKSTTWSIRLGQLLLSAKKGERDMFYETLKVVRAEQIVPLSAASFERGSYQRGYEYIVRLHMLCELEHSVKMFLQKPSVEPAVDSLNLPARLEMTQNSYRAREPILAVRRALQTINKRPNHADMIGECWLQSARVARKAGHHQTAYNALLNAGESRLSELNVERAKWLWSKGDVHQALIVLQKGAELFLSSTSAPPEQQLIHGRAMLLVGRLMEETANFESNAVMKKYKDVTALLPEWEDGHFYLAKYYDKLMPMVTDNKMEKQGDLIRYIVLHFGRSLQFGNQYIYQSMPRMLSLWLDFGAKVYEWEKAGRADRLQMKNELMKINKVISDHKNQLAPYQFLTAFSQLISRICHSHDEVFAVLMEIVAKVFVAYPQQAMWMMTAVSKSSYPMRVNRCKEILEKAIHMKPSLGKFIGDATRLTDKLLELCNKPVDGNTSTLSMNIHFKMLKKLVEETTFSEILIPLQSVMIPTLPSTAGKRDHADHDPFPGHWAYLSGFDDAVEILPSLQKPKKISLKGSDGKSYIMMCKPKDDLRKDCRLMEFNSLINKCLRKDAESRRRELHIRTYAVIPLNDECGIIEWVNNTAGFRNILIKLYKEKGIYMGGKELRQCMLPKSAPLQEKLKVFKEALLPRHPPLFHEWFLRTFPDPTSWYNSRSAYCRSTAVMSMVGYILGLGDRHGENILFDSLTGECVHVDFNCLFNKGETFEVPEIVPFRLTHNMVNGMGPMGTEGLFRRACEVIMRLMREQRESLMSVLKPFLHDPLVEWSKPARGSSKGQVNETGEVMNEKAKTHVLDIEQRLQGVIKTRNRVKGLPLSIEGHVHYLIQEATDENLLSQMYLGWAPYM
UniProt P31669: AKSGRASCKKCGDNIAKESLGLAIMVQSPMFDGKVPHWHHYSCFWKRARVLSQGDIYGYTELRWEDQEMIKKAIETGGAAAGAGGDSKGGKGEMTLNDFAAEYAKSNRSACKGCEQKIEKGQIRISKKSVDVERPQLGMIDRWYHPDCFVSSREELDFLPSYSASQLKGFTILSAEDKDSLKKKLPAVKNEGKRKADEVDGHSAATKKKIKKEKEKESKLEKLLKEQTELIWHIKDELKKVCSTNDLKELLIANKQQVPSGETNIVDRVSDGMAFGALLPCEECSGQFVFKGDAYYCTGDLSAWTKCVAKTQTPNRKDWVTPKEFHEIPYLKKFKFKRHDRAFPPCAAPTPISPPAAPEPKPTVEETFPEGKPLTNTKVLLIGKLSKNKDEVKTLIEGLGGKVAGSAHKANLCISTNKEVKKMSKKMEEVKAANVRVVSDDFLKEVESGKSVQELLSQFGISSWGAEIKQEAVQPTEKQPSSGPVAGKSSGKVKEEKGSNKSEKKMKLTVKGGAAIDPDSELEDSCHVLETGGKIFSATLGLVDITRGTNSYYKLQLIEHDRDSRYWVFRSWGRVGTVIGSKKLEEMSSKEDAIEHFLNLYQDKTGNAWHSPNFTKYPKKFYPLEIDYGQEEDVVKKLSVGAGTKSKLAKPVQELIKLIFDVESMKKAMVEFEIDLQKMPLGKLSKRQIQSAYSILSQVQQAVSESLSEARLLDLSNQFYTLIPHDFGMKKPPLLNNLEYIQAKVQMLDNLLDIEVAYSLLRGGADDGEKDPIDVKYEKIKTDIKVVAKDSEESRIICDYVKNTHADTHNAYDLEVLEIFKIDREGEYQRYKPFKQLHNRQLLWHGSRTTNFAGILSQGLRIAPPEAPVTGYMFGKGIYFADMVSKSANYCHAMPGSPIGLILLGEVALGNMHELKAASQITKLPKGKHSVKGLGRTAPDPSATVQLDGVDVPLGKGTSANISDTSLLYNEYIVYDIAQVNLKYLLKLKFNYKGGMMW

According to article PMC12242765:

Biological target: Mcm3 (X. laevis (endogenous in egg extract)) (UniProt P49739)
Test: affinity purification with mass spectrometry; Mcm3 IP from chromatin in S-phase (replisomes retained by CULi and p97i) and in mitosis (CyclinA1ΔN added); re-analysis of the authors' previously published mass spectrometry data (refs 4 and 10), peptides normalised to total Mcm2-7

With “ATR (from UniProt Q9DE14 1-2654) (enzyme)” the binding was “binds”.
“Parp1 (from UniProt P31669 1-998) (enzyme)” was tested, and the binding was “binds”.

Results are given in words; binding and its absence hold for the method and conditions named. Binding seen in cells or lysates may run through a third protein. Here binding means that the protein was enriched with, or labelled near, the bait; the list need not be complete.
